Laboratory results: PubChem BioAssay AID1259308 (NCATS, 2017)
Test: 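Candidate targets for better recombinant protein yield in mammalian cells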 (primary screen). Cells: human HEK293 embryonic kidney cells stably expressing firefly luciferase (HEK-CMV-Luc2-Hygro). Reagent: single siRNA against human genes, 0.8 pmol siRNA per well. Time to read-out: 72 h. Detection: 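Luciferase light (ONE-Glo) measured on one replicate plate set and viability (CellTiter-Glo) on the other, scaled to a negative control siRNA, with robust z-scores and luciferase per cell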. Direction: total luciferase, z-score: higher = more reporter protein produced. Call rule: 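Active when the median/MAD z-score for overall luciferase is greater than 3; a gene was taken forward for validation with new siRNAs if at least two of its three siRNAs passed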. Meaning of the calls: active = raised luciferase; inactive = no rise.
Here is an unselected part of about 59,000 reagents. About 1,510 of all reagents (2.6%) were called active. 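Calls use total luciferase alone and ignore viability, so some active siRNAs may act by altering cell number.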 Reagents against one gene are numbered here. Further read-outs or replicates are left out here.

Target gene | siRNA no. | total luciferase, z-score | Call
DAPP1 | 1 | -1.04 | inactive
DAPP1 | 2 | 1.12 | inactive
DAPP1 | 3 | 0.465 | inactive
PLA1A | 1 | 0.0615 | inactive
PLA1A | 2 | -1.67 | inactive
PLA1A | 3 | 0.933 | inactive
MAN2A2 | 1 | -1.93 | inactive
MAN2A2 | 2 | -0.344 | inactive
MAN2A2 | 3 | -0.117 | inactive
ZC3H10 | 1 | 0.312 | inactive
ZC3H10 | 2 | 0.236 | inactive
ZC3H10 | 3 | -0.62 | inactive
CYP2C8 | 1 | 0.223 | inactive
CYP2C8 | 2 | -1.06 | inactive
CYP2C8 | 3 | -0.933 | inactive
EPS8 | 1 | 0.679 | inactive
EPS8 | 2 | 1.57 | inactive
EPS8 | 3 | 1.65 | inactive
CPEB3 | 1 | -0.965 | inactive
CPEB3 | 2 | 0.828 | inactive
CPEB3 | 3 | 2.44 | inactive

Copied from the entries so far (4 entries):
Target gene | siRNA no. | total luciferase, z-score | Call
MAN2A2 | 2 | -0.344 | inactive
MAN2A2 | 3 | -0.117 | inactive
ZC3H10 | 1 | 0.312 | inactive
ZC3H10 | 2 | 0.236 | inactive

Next results follow.
Target gene | siRNA no. | total luciferase, z-score | Call
NALF2 | 1 | 5.48 | active
NALF2 | 2 | -0.437 | inactive
NALF2 | 3 | 0.301 | inactive
PPP1R3F | 1 | -0.251 | inactive
PPP1R3F | 2 | -0.145 | inactive
PPP1R3F | 3 | 0.512 | inactive
IRX4 | 1 | -0.23 | inactive
IRX4 | 2 | -0.121 | inactive
IRX4 | 3 | 2.65 | inactive
SEC14L2 | 1 | 0.439 | inactive
SEC14L2 | 2 | 1.91 | inactive
SEC14L2 | 3 | -0.537 | inactive
CSN1S2AP | 1 | -0.547 | inactive
CSN1S2AP | 2 | -0.681 | inactive
CSN1S2AP | 3 | -0.173 | inactive
HAGHL | 1 | -0.123 | inactive
HAGHL | 2 | -0.831 | inactive
HAGHL | 3 | 1.63 | inactive
